Reference: PMC10545676
These are yes or no findings as the source states them, for the method shown. Binding seen in cells or lysates may run through a third protein. Some results given as binding are weak or reduced against the parent protein; the word gives no strength.

Sequences of proteins named here, by UniProt entry; tags and fusion partners are left off. Residues count along the entry.
UniProt P07996, residues 19-1170: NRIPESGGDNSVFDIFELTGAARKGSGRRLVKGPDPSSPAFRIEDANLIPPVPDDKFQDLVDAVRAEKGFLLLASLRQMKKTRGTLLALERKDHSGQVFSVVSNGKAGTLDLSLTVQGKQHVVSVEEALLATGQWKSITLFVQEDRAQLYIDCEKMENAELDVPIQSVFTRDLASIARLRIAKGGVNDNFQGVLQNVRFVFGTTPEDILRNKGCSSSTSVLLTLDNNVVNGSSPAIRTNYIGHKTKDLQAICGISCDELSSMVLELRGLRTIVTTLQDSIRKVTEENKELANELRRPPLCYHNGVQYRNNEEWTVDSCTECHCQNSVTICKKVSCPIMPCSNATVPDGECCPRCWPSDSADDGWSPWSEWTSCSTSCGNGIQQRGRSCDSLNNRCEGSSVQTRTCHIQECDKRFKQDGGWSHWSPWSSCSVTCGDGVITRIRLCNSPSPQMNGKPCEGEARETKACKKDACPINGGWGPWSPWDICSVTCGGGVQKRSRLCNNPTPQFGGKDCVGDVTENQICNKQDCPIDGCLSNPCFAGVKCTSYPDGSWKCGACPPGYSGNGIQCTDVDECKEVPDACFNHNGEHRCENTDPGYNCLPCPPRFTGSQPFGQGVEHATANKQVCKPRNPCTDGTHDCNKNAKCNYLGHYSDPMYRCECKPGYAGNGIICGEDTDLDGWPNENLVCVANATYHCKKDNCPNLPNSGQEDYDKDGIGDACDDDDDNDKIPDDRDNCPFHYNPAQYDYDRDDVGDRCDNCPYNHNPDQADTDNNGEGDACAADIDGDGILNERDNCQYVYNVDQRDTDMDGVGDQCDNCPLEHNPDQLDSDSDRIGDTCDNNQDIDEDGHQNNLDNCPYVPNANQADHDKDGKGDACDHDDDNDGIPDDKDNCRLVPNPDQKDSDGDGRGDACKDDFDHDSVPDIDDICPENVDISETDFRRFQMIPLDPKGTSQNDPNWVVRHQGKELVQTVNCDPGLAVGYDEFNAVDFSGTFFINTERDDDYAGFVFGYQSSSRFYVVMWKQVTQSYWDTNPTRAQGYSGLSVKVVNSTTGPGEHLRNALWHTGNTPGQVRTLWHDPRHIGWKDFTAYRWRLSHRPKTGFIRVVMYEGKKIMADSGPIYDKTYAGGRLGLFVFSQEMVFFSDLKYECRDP
UniProt P35441, residues 19-1170: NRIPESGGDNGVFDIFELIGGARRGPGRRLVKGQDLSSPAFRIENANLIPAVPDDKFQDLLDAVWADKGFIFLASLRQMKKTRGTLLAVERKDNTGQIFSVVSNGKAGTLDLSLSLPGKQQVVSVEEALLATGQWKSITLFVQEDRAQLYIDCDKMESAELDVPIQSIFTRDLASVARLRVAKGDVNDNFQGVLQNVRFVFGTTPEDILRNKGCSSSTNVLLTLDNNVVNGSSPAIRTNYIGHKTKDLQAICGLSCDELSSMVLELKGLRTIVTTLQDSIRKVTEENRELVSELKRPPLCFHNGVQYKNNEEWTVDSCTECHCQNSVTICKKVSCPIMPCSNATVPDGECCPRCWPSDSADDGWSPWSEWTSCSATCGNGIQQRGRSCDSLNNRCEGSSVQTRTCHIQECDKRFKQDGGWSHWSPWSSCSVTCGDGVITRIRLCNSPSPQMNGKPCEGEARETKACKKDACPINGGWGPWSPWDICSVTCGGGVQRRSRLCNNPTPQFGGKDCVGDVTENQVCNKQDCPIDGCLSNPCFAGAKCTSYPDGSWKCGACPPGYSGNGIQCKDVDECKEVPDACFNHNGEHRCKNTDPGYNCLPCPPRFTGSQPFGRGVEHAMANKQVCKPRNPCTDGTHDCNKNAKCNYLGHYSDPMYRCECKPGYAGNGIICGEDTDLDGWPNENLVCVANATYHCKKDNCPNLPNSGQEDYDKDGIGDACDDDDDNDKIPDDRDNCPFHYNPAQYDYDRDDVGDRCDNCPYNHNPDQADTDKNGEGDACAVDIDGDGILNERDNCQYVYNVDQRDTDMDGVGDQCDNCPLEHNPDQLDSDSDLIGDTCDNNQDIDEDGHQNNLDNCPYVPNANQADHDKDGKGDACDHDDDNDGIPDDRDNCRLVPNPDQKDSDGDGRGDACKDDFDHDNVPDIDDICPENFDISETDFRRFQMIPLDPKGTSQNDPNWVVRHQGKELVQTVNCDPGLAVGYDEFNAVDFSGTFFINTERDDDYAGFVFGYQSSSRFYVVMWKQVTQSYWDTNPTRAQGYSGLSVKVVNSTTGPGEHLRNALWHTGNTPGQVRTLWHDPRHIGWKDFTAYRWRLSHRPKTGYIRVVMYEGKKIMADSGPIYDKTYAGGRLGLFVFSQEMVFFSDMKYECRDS
UniProt Q14457: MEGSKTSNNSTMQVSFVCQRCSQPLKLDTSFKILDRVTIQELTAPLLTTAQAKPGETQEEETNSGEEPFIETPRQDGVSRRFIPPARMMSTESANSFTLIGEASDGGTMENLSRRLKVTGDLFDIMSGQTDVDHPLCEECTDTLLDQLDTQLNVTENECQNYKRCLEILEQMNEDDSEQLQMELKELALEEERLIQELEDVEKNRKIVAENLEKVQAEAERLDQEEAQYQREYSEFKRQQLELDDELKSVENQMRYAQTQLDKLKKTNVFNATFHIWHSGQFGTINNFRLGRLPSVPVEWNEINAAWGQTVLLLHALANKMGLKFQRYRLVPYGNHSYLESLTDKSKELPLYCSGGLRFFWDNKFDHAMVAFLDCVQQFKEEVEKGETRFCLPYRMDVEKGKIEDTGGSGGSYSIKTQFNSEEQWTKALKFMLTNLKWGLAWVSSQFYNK

Columns and labels:
[1] = target: Thrombospondin 1 (THBS1) (human (endogenous in BEAS-2B)) (UniProt P07996); test: proximity ligation; Duolink PLA in fixed BEAS-2B cells with anti-THBS1 and anti-BECN1 antibodies
[2] = target: THBS1 overexpressed from adenovirus (ad-THBS1) (mouse) (UniProt P35441); test: co-IP; BEAS-2B lysates in IP buffer, protein A/G agarose beads and anti-tag antibody overnight at 4 °C, washed with NaCl buffer, Western blot; cells under control, LPS + CIH, LPS + CIH + Ang-(1-7) or ad-THBS1 conditions; which protein was precipitated is not told
[3] = target: Thrombospondin 1 (THBS1) (human (endogenous in BEAS-2B)) (UniProt P07996); test: as above

Measured: binding

Beclin 1 (BECN1) (from UniProt Q14457 1-450)
binds: all assays above
